In PMC4593006:
No constants are given. Whether binding was seen depends on the method and setting. In cells and extracts the contact can be indirect. Some results given as binding are weak or reduced against the parent protein; the word gives no strength. Where a sequence is shown, tags or fusion partners need not be part of it. One block for each molecule: values may come before it.

By UniProt entry, the sequences of proteins in these tests, tags left out. Where a name states a change or a piece, a line headed by the entry shows the natural chain unless it says otherwise.
UniProt Q9HAU4: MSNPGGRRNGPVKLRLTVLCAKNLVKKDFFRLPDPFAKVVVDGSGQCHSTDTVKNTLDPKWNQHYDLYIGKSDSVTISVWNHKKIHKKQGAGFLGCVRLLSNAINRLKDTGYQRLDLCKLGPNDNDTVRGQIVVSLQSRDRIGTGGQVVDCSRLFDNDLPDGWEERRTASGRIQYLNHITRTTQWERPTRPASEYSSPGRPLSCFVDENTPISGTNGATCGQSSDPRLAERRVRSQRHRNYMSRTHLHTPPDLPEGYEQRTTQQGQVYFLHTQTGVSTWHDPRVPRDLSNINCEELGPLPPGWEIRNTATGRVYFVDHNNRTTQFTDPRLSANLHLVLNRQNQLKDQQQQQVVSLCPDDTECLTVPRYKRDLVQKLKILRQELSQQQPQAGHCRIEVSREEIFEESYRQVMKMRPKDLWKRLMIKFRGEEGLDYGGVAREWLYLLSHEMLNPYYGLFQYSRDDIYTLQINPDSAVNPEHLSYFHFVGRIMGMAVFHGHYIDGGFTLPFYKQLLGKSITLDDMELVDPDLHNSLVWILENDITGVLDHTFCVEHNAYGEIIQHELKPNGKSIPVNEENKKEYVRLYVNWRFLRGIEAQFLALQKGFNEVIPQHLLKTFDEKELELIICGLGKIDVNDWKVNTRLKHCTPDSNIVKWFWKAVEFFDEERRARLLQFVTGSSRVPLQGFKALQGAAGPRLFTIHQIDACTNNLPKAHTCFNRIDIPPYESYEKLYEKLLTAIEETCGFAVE
UniProt O15105: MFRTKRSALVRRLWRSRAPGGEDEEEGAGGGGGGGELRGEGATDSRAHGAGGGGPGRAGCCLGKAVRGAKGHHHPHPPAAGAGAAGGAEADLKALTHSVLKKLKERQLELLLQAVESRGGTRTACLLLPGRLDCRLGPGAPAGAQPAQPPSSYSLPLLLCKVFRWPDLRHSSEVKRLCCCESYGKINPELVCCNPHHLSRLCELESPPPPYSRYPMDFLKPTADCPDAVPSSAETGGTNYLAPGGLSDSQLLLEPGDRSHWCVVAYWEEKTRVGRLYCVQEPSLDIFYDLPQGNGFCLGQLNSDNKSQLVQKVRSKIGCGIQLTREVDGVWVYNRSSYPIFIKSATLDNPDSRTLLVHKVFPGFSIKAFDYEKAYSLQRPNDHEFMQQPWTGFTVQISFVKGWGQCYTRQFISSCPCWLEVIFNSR

Experiments:
Myc-SMURF2 (K734R) = Myc-SMURF2 (K734R) (UniProt Q9HAU4); test: co-IP; immunoprecipitation with anti-Myc antibodies from lysates of co-transfected HEK293T cells; ELB buffer (250 mM NaCl, 0.5% Nonidet P-40, 50 mM HEPES pH 7.3), overnight at 4 °C, protein A or G sepharose; immunoblot
Myc-SMURF2 = Myc-SMURF2 (UniProt Q9HAU4); test: as above

binding (Myc-SMURF2 (K734R)): binds
binding (Myc-SMURF2): binds
Molecule: Flag-SMAD7 (from UniProt O15105 1-426)

binding (Myc-SMURF2 (K734R)): binds
binding (Myc-SMURF2): binds
B1: Flag-USP15 (enzyme, UniProt Q9Y4E8-2 1-952)
chain: MAEGGAADLDTQRSDIATLLKTSLRKGDTWYLVDSRWFKQWKKYVGFDSWDKYQMGDQNVYPGPIDNSGLLKDGDAQSLKEHLIDELDYILLPTEGWNKLVSWYTLMEGQEPIARKVVEQGMFVKHCKVEVYLTELKLCENGNMNNVVTRRFSKADTIDTIEKEIRKIFSIPDEKETRLWNKYMSNTFEPLNKPDSTIQDAGLYQGQVLVIEQKNEDGTWPRGPSTPNVKNSNYCLPSYTAYKNYDYSEPGRNNEQPGLCGLSNLGNTCFMNSAIQCLSNTPPLTEYFLNDKYQEELNFDNPLGMRGEIAKSYAELIKQMWSGKFSYVTPRAFKTQVGRFAPQFSGYQQQDCQELLAFLLDGLHEDLNRIRKKPYIQLKDADGRPDKVVAEEAWENHLKRNDSIIVDIFHGLFKSTLVCPECAKISVTFDPFCYLTLPLPMKKERTLEVYLVRMDPLTKPMQYKVVVPKIGNILDLCTALSALSGIPADKMIVTDIYNHRFHRIFAMDENLSSIMERDDIYVFEININRTEDTEHVIIPVCLREKFRHSSYTHHTGSSLFGQPFLMAVPRNNTEDKLYNLLLLRMCRYVKISTETEETEGSLHCCKDQNINGNGPNGIHEEGSPSEMETDEPDDESSQDQELPSENENSQSEDSVGGDNDSENGLCTEDTCKGQLTGHKKRLFTFQFNNLGNTDINYIKDDTRHIRFDDRQLRLDERSFLALDWDPDLKKRYFDENAAEDFEKHESVEYKPPKKPFVKLKDCIELFTTKEKLGAEDPWYCPNCKEHQQATKKLDLWSLPPVLVVHLKRFSYSRYMRDKLDTLVDFPINDLDMSEFLINPNAGPCRYNLIAVSNHYGGMGGGHYTAFAKNKDDGKWYYFDDSSVSTASEDQIVSKAAYVLFYQRQDTFSGTGFFPLDRETKGASAATGIPLESDEDSNDNDNDIENENCMHTN
